The results in this text go back to the supplement of paper PMC12819154, “High-throughput peptide-centric local stability assay extends protein–ligand identification to membrane proteins, tissues and bacteria” (Nature Structural & Molecular Biology, 2025).

Sequences of proteins named here, by UniProt entry; tags and fusion partners are left off. A change or cut given only in a name is not applied to a line headed by its entry.
UniProt Q9NVU0: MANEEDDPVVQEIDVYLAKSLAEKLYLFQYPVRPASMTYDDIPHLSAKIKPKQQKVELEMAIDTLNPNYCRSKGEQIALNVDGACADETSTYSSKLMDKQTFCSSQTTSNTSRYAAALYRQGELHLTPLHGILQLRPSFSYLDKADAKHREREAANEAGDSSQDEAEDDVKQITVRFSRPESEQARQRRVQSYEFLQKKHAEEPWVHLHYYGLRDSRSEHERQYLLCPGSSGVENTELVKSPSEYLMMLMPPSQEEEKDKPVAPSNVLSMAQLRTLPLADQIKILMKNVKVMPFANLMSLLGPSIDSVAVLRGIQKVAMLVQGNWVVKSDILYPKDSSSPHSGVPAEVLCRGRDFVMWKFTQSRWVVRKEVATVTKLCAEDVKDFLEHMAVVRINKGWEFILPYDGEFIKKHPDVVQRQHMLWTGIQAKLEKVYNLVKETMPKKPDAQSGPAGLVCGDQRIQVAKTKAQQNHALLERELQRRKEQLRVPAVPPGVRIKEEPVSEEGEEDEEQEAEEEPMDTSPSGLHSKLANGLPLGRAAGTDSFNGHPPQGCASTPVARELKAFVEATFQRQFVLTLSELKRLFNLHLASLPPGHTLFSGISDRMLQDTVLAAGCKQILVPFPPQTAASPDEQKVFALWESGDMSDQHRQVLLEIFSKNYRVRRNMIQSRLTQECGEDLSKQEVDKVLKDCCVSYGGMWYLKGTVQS
UniProt Q9NV79: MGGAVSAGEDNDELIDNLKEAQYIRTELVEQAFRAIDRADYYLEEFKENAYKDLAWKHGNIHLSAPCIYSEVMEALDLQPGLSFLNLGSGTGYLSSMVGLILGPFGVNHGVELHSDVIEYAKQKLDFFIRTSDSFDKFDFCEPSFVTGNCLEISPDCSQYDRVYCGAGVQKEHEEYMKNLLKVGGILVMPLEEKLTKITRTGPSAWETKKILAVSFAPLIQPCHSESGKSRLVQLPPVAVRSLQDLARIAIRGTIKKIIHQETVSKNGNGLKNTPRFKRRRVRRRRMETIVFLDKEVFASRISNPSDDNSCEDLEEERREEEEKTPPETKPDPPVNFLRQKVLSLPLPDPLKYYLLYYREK
UniProt Q9NXJ5: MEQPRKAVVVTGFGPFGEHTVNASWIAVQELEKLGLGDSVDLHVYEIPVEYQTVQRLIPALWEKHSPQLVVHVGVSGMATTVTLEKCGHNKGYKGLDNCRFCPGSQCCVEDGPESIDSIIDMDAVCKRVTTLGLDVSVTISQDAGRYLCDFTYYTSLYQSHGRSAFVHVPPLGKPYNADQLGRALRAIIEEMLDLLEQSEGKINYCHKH
UniProt Q9NQZ6: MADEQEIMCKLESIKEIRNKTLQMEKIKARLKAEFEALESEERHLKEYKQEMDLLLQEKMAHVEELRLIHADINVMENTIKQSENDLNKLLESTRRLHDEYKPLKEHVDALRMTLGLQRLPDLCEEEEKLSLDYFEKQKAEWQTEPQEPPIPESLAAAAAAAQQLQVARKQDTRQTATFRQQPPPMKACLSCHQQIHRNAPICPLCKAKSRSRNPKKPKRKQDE
UniProt Q9NUT2: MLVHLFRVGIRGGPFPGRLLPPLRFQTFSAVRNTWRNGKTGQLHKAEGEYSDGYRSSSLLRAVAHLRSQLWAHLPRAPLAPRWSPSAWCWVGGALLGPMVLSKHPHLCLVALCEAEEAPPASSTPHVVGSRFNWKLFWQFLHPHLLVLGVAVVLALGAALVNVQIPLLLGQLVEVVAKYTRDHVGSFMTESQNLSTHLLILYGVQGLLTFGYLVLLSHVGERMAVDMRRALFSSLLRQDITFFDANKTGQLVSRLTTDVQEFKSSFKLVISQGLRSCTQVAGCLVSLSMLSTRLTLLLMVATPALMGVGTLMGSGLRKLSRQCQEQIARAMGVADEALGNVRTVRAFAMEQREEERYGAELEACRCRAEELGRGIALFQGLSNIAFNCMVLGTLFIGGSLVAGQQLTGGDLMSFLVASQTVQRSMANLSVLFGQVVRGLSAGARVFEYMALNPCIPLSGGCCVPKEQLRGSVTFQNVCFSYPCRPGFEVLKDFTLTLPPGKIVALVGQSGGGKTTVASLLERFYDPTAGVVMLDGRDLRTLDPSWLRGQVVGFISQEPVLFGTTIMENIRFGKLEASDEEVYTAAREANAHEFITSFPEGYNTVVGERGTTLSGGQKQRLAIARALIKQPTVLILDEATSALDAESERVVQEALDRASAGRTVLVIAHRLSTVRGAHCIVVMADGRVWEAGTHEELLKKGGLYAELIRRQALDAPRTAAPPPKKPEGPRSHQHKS
UniProt Q9NRR6: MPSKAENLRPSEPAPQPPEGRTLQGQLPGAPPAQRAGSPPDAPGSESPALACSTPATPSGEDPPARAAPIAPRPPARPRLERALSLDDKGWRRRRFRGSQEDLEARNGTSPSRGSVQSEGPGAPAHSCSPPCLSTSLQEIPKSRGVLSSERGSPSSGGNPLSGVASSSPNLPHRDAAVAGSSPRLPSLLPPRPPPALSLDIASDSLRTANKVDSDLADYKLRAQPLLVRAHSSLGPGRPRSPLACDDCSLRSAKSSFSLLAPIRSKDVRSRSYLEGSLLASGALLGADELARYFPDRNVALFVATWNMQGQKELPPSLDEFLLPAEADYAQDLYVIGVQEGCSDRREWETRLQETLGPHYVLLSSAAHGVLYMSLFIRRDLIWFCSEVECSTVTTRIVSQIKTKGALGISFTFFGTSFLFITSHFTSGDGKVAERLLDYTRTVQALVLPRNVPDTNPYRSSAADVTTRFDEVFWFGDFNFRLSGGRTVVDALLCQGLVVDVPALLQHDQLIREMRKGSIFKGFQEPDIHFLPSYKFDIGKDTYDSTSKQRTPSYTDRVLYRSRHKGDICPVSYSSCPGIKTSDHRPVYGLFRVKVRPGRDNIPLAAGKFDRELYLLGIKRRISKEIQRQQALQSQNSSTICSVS
UniProt Q9NSK7: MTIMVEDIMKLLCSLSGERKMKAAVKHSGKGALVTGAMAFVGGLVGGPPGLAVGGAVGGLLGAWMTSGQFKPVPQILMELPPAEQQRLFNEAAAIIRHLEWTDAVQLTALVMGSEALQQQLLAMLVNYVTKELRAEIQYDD
UniProt Q9NXF7, whole entry: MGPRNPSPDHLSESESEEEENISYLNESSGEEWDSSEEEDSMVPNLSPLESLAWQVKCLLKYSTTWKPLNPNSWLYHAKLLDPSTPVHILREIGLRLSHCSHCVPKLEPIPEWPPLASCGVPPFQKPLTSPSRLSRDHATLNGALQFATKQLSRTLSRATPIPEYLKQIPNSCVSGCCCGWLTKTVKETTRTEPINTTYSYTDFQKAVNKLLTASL
UniProt Q9NTJ5: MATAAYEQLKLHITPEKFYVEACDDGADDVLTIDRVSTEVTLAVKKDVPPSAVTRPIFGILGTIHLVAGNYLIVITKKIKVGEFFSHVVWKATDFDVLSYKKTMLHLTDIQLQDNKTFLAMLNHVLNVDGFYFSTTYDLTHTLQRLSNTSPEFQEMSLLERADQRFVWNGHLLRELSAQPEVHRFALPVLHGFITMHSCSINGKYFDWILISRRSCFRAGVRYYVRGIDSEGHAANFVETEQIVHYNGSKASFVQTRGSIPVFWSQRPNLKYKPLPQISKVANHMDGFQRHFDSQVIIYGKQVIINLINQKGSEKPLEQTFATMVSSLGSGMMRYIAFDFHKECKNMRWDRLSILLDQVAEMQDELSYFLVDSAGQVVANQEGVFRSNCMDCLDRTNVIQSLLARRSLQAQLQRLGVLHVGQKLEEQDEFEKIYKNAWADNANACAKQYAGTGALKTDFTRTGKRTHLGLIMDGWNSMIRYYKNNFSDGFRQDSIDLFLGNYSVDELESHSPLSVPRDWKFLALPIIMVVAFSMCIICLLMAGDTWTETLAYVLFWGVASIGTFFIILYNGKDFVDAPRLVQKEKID
UniProt Q9NSK0: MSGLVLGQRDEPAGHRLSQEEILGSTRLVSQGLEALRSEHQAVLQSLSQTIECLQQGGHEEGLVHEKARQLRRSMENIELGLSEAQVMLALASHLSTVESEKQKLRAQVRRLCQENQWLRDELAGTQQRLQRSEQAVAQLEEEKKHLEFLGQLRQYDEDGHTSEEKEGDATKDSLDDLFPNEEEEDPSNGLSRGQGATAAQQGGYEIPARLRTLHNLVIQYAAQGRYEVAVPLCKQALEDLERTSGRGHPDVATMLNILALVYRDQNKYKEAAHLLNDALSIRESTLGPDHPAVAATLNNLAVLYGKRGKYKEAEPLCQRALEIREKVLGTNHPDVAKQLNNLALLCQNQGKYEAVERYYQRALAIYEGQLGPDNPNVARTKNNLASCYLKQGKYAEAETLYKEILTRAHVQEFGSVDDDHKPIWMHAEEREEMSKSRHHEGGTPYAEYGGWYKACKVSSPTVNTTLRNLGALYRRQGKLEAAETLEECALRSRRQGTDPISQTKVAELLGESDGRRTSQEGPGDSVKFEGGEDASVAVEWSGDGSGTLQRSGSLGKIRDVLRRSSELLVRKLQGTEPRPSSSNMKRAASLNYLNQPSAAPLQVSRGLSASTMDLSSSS
UniProt Q9NVK5: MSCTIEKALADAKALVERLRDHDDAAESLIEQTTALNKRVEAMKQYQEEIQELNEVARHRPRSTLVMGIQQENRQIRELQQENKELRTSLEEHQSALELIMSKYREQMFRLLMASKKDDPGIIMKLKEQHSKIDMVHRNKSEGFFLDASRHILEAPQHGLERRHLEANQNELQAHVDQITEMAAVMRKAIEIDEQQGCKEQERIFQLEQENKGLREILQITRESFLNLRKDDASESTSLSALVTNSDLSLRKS
UniProt Q9NVH0: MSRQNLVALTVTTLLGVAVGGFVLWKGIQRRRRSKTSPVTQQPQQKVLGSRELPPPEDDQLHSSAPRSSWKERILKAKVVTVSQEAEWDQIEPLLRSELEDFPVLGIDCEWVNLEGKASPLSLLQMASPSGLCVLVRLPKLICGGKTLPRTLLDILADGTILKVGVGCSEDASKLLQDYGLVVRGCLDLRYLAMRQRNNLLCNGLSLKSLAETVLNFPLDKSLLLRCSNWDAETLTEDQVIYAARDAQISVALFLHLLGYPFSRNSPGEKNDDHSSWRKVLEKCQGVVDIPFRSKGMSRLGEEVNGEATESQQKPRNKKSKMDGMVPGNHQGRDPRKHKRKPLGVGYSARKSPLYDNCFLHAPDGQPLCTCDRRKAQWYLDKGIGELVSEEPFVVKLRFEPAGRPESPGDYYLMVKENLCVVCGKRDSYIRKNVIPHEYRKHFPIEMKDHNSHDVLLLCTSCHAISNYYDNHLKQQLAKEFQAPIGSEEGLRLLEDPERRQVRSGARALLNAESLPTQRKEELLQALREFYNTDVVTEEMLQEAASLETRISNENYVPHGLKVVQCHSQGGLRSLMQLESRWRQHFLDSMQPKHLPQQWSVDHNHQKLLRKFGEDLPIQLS
UniProt Q9NRX5: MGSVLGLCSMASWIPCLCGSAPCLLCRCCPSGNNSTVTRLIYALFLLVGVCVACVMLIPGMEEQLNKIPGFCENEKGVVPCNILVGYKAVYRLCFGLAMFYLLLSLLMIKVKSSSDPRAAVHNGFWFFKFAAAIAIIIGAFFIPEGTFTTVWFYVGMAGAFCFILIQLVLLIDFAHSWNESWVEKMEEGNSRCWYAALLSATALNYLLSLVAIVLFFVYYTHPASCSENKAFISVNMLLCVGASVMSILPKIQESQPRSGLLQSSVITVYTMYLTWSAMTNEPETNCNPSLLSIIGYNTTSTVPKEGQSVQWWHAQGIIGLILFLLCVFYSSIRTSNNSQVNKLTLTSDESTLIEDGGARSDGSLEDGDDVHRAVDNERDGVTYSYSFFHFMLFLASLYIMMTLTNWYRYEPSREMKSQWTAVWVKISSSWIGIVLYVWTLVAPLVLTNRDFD
UniProt Q9NVX0: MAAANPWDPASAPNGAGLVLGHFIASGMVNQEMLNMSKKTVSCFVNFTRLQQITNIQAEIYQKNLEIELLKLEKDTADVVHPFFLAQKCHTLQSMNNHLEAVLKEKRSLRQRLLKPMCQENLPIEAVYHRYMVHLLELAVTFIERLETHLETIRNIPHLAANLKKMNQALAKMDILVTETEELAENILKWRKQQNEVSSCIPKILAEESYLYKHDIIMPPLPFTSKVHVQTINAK
UniProt Q9NVH6: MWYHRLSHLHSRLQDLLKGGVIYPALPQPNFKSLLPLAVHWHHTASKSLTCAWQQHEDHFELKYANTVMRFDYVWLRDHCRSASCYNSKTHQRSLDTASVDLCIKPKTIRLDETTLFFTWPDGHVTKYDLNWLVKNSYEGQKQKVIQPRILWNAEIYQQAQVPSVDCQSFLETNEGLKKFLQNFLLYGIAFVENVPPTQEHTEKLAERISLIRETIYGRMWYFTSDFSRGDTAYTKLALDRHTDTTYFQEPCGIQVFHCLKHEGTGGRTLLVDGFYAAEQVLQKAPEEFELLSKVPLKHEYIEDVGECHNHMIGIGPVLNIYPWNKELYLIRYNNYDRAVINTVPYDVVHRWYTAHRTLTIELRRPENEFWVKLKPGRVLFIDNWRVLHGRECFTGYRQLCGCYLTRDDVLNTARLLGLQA

Some of the results follow. Small differences around the control level are noise.

Compound in the experiment: CN[C@@H]1C[C@H]2O[C@@](C)([C@@H]1OC)n1c3ccccc3c3c4c(c5c6ccccc6n2c5c31)C(=O)NC4 [staurosporine]
In words: log2 fold change of tryptic peptide abundance, ligand vs vehicle (limited proteolysis) (log2 ratio); higher = more trypsin-susceptible (destabilized). To be noted: ligand concentration: 20 uM; sample: K562 cleared lysate; digestion: 4 min, 22 C (HT-PELSA RT4min, Orbitrap Astral).
Regarding “OLA1 (peptide sequence: GGDGIKPPPIIGR, peptide start residue: 6) (UniProt Q9NTK5)”, the log2 fold change amounted to 0.232.

For “POLR3E (peptide sequence: LANGLPLGR, peptide start residue: 530) (UniProt Q9NVU0)”, the log2 fold change was -0.121.

On to “MRPS18A (peptide sequence: WAPGSVKPIYK, peptide start residue: 154) (UniProt Q9NVS2)”, for which the log2 fold change was -0.127.

With “PCMTD2 (peptide sequence: TGPSAWETKK, peptide start residue: 201) (UniProt Q9NV79)”, the log2 fold change was -0.853.

Consider “PGPEP1 (peptide sequence: HSPQLVVHVGVSGMATTVTLEK, peptide start residue: 65) (UniProt Q9NXJ5)”, for which the log2 fold change is -0.198.

On to “UniProt Q9NRY4 (peptide sequence: FIRPSDR, peptide start residue: 578)”, for which the log2 fold change was 0.309.

“BCLAF1 (peptide sequence: MIASDSHRPEVK, peptide start residue: 537) (UniProt Q9NYF8)”: the log2 fold change was -0.233.

Consider “ZNF277 (peptide sequence: KLDNLQCLYCEK, peptide start residue: 220) (UniProt Q9NRM2)”, for which the log2 fold change is -0.256.

With “UniProt Q9NUP9 (peptide sequence: VLQSEFCNAVR, peptide start residue: 41)”, the log2 fold change is -0.0611.

Take “TDP1 (peptide sequence: FSNTDSVLPPKR, peptide start residue: 65) (UniProt Q9NUW8)”: the log2 fold change is -0.292.

Turning to “ZC4H2 (peptide sequence: NAPICPLCK, peptide start residue: 199) (UniProt Q9NQZ6)”, the log2 fold change was -0.249.

For “ABCB8 (peptide sequence: TVLVIAHR, peptide start residue: 684) (UniProt Q9NUT2)”, the log2 fold change was -0.0387.

Consider “INPP5E (peptide sequence: SSFSLLAPIR, peptide start residue: 255) (UniProt Q9NRR6)”, for which the log2 fold change is -0.462.

In the case of “C19orf12 (peptide sequence: LLCSLSGER, peptide start residue: 22) (UniProt Q9NSK7)”, the log2 fold change was found to be 0.0697.

Consider “UniProt Q9NXF7 (peptide sequence: DHATLNGALQFATK, peptide start residue: 137)”, for which the log2 fold change is -0.227.

As to “SACM1L (peptide sequence: TNVIQSLLAR, peptide start residue: 396) (UniProt Q9NTJ5)”, the log2 fold change stood at 0.235.

On to “UniProt Q9NR48 (peptide sequence: LGLGTVVGLVNK, peptide start residue: 359)”, for which the log2 fold change was 0.574.

In the case of “AAAS (peptide sequence: GQWINLPVLQLTKDPLK, peptide start residue: 40) (UniProt Q9NRG9)”, the log2 fold change was 0.702.

On to “KLC4 (peptide sequence: YAEAETLYK, peptide start residue: 395) (UniProt Q9NSK0)”, for which the log2 fold change is -0.137.

In the case of “FGFR1OP2 (peptide sequence: LRDHDDAAESLIEQTTALNKR, peptide start residue: 19) (UniProt Q9NVK5)”, the log2 fold change was -0.697.

With “UniProt Q9NVH0 (peptide sequence: LGEEVNGEATESQQKPR, peptide start residue: 300)”, the log2 fold change is -0.646.

Take “MTMR10 (peptide sequence: MFSLKPPKPTFR, peptide start residue: 1) (UniProt Q9NXD2)”: the log2 fold change was -0.14.

For the target “SERINC1 (peptide sequence: LTLTSDESTLIEDGGAR, peptide start residue: 344) (UniProt Q9NRX5)”, the log2 fold change was -0.395.

In the case of “UniProt Q9NVX0 (peptide sequence: NIPHLAANLK, peptide start residue: 155)”, the log2 fold change was -0.83.

For the target “TMLHE (peptide sequence: FDYVWLR, peptide start residue: 71) (UniProt Q9NVH6)”, the log2 fold change is -0.0157.

For the target “UniProt Q9NUP1 (peptide sequence: AEAELGTFPR, peptide start residue: 159)”, the log2 fold change is -0.196.

In the case of “UniProt Q9NUJ3 (peptide sequence: HALPVGGMAAGSGDMPR, peptide start residue: 282)”, the log2 fold change worked out at 0.00836.

As to “UniProt Q9NX31 (peptide sequence: FIHCSTIASSSSSQLK, peptide start residue: 92)”, the log2 fold change was determined as 0.163.

With “APOBEC3C (peptide sequence: NQVDSETHCHAER, peptide start residue: 57) (UniProt Q9NRW3)”, the log2 fold change is -0.102.
